For six molecules, binding results are on record in paper PMC6377607.

Assay [1] deals with T1, Phytoalexin deficient4 (PAD4), yeast two-hybrid fusion (Arabidopsis) (UniProt Q9S745).
T1 sequence: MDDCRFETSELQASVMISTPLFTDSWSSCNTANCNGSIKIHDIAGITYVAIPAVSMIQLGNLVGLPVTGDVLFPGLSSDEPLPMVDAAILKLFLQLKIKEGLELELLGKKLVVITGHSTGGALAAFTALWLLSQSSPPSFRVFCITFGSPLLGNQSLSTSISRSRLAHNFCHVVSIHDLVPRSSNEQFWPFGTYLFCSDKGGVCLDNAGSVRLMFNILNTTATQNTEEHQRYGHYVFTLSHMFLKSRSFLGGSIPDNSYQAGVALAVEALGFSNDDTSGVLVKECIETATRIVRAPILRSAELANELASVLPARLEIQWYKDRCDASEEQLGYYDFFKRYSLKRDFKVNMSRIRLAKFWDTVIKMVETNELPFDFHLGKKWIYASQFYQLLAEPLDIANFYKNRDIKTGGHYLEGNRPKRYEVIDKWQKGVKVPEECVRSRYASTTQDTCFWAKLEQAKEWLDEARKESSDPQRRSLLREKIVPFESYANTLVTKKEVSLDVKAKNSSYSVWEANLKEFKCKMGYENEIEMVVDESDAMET
Nature of the assay: two-hybrid; Matchmaker system (Clontech), yeast strain AH109, fusions in pGADT7 and pGBKT7; reporter activation on plates lacking leucine, tryptophan, histidine and adenine, growth recorded after 2-5 days at 30 °C.

The target in assay [2] is T2, PAD4-YFP (Arabidopsis) (UniProt Q9S745).
T2 sequence: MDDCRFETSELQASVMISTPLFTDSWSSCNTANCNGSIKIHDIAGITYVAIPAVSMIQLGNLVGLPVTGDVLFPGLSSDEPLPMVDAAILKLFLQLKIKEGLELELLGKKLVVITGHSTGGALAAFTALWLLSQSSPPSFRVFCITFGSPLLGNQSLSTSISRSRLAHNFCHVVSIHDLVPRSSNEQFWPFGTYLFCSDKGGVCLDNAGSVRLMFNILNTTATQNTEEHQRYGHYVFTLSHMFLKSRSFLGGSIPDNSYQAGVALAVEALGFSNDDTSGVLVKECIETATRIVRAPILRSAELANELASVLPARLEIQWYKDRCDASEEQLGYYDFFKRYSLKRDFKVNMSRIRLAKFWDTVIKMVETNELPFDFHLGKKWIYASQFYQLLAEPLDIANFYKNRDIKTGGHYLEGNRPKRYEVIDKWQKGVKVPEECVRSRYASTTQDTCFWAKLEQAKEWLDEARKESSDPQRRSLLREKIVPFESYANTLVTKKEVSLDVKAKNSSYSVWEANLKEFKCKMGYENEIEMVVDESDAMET
As to the kind of experiment: co-IP; IPs of transiently expressed proteins (host not stated for Supplementary Fig. 5B, C); GFP-TrapA beads for 2 h at 4 °C in 50 mM Tris pH 7.5, 150 mM NaCl, 10% glycerol, 2 mM EDTA, 5 mM DTT, 0.1% Triton; immunoblot.

Assay [3] addresses T2, PAD4-YFP (Arabidopsis). As to the kind of experiment: co-IP; transient expression in eds1-2 pad4-1 sag101-3 Arabidopsis protoplasts (16 h); IP with GFP-TrapA beads for 2 h at 4 °C in 50 mM Tris pH 7.5, 150 mM NaCl, 10% glycerol, 2 mM EDTA, 5 mM DTT, 0.1% Triton; immunoblot.

Results are given in words; binding and its absence hold for the method and conditions named. For some of these results: In cells and extracts the contact can be indirect. Some results given as binding are weak or reduced against the parent protein; the word gives no strength. Sequences can lack the tags named with a protein.

B1: Enhanced disease susceptibility1 (EDS1), wild type, yeast two-hybrid fusion (protein, UniProt Q9XF23 1-623)
chain: MAFEALTGINGDLITRSWSASKQAYLTERYHKEEAGAVVIFAFQPSFSEKDFFDPDNKSSFGEIKLNRVQFPCMRKIGKGDVATVNEAFLKNLEAVIDPRTSFQASVEMAVRSRKQIVFTGHSSGGATAILATVWYLEKYFIRNPNVYLEPRCVTFGAPLVGDSIFSHALGREKWSRFFVNFVTRFDIVPRITLARKASVEETLPHVLAQLDPRNSSVQESEQRITEFYTSVMRDTSTVANQAVCELTGSAEAILETLSSFLELSPYRPAGTFVFSTEKRLVAVNNSDAILQMLFYTCQASDEQEWSLIPFRSIRDHHSYEELVQSMGMKLFNHLDGENSIESSLNDLGVSTRGRQYVQAALEEEKKRVENQKKIIQVIQQERFLKKLAWIEDEYKPKCQAHKNGYYDSFKVSNEENDFKANVKRAELAGVFDEVLGLLKKCQLPDEFEGDIDWIKLATRYRRLVEPLDIANYHRHLKNEDTGPYMKRGRPTRYIYAQRGYEHHILKPNGMIAEDVFWNKVNGLNLGLQLEEIQETLKNSGSECGSCFWAEVEELKGKPYEEVEVRVKTLEGMLREWITAGEVDEKEIFLEGSTFRKWWITLPKNHKSHSPLRDYMMDEITDT
As to B1, the binding result in assay [1] was “binds”.

B2: FLAG-tagged EDS1^R493E (protein, UniProt Q9XF23 1-623)
chain: MAFEALTGINGDLITRSWSASKQAYLTERYHKEEAGAVVIFAFQPSFSEKDFFDPDNKSSFGEIKLNRVQFPCMRKIGKGDVATVNEAFLKNLEAVIDPRTSFQASVEMAVRSRKQIVFTGHSSGGATAILATVWYLEKYFIRNPNVYLEPRCVTFGAPLVGDSIFSHALGREKWSRFFVNFVTRFDIVPRITLARKASVEETLPHVLAQLDPRNSSVQESEQRITEFYTSVMRDTSTVANQAVCELTGSAEAILETLSSFLELSPYRPAGTFVFSTEKRLVAVNNSDAILQMLFYTCQASDEQEWSLIPFRSIRDHHSYEELVQSMGMKLFNHLDGENSIESSLNDLGVSTRGRQYVQAALEEEKKRVENQKKIIQVIQQERFLKKLAWIEDEYKPKCQAHKNGYYDSFKVSNEENDFKANVKRAELAGVFDEVLGLLKKCQLPDEFEGDIDWIKLATRYRRLVEPLDIANYHRHLKNEDTGPYMKRGRPTEYIYAQRGYEHHILKPNGMIAEDVFWNKVNGLNLGLQLEEIQETLKNSGSECGSCFWAEVEELKGKPYEEVEVRVKTLEGMLREWITAGEVDEKEIFLEGSTFRKWWITLPKNHKSHSPLRDYMMDEITDT
On to B2, for which the binding result with PAD4-YFP (Arabidopsis) [2] is “binds”.

B3: wild-type EDS1-FLAG (protein, UniProt Q9XF23 1-623)
chain: MAFEALTGINGDLITRSWSASKQAYLTERYHKEEAGAVVIFAFQPSFSEKDFFDPDNKSSFGEIKLNRVQFPCMRKIGKGDVATVNEAFLKNLEAVIDPRTSFQASVEMAVRSRKQIVFTGHSSGGATAILATVWYLEKYFIRNPNVYLEPRCVTFGAPLVGDSIFSHALGREKWSRFFVNFVTRFDIVPRITLARKASVEETLPHVLAQLDPRNSSVQESEQRITEFYTSVMRDTSTVANQAVCELTGSAEAILETLSSFLELSPYRPAGTFVFSTEKRLVAVNNSDAILQMLFYTCQASDEQEWSLIPFRSIRDHHSYEELVQSMGMKLFNHLDGENSIESSLNDLGVSTRGRQYVQAALEEEKKRVENQKKIIQVIQQERFLKKLAWIEDEYKPKCQAHKNGYYDSFKVSNEENDFKANVKRAELAGVFDEVLGLLKKCQLPDEFEGDIDWIKLATRYRRLVEPLDIANYHRHLKNEDTGPYMKRGRPTRYIYAQRGYEHHILKPNGMIAEDVFWNKVNGLNLGLQLEEIQETLKNSGSECGSCFWAEVEELKGKPYEEVEVRVKTLEGMLREWITAGEVDEKEIFLEGSTFRKWWITLPKNHKSHSPLRDYMMDEITDT
With B3, the binding entry with PAD4-YFP (Arabidopsis) [3] is recorded as “binds”.

B4: EDS1^R493A, yeast two-hybrid fusion (protein, UniProt Q9XF23 1-623)
chain: MAFEALTGINGDLITRSWSASKQAYLTERYHKEEAGAVVIFAFQPSFSEKDFFDPDNKSSFGEIKLNRVQFPCMRKIGKGDVATVNEAFLKNLEAVIDPRTSFQASVEMAVRSRKQIVFTGHSSGGATAILATVWYLEKYFIRNPNVYLEPRCVTFGAPLVGDSIFSHALGREKWSRFFVNFVTRFDIVPRITLARKASVEETLPHVLAQLDPRNSSVQESEQRITEFYTSVMRDTSTVANQAVCELTGSAEAILETLSSFLELSPYRPAGTFVFSTEKRLVAVNNSDAILQMLFYTCQASDEQEWSLIPFRSIRDHHSYEELVQSMGMKLFNHLDGENSIESSLNDLGVSTRGRQYVQAALEEEKKRVENQKKIIQVIQQERFLKKLAWIEDEYKPKCQAHKNGYYDSFKVSNEENDFKANVKRAELAGVFDEVLGLLKKCQLPDEFEGDIDWIKLATRYRRLVEPLDIANYHRHLKNEDTGPYMKRGRPTAYIYAQRGYEHHILKPNGMIAEDVFWNKVNGLNLGLQLEEIQETLKNSGSECGSCFWAEVEELKGKPYEEVEVRVKTLEGMLREWITAGEVDEKEIFLEGSTFRKWWITLPKNHKSHSPLRDYMMDEITDT
For the molecule B4, the binding result in assay [1] is listed as “binds”.

B5: EDS1^R493A fused to a FLAG tag (protein, UniProt Q9XF23 1-623)
chain: MAFEALTGINGDLITRSWSASKQAYLTERYHKEEAGAVVIFAFQPSFSEKDFFDPDNKSSFGEIKLNRVQFPCMRKIGKGDVATVNEAFLKNLEAVIDPRTSFQASVEMAVRSRKQIVFTGHSSGGATAILATVWYLEKYFIRNPNVYLEPRCVTFGAPLVGDSIFSHALGREKWSRFFVNFVTRFDIVPRITLARKASVEETLPHVLAQLDPRNSSVQESEQRITEFYTSVMRDTSTVANQAVCELTGSAEAILETLSSFLELSPYRPAGTFVFSTEKRLVAVNNSDAILQMLFYTCQASDEQEWSLIPFRSIRDHHSYEELVQSMGMKLFNHLDGENSIESSLNDLGVSTRGRQYVQAALEEEKKRVENQKKIIQVIQQERFLKKLAWIEDEYKPKCQAHKNGYYDSFKVSNEENDFKANVKRAELAGVFDEVLGLLKKCQLPDEFEGDIDWIKLATRYRRLVEPLDIANYHRHLKNEDTGPYMKRGRPTAYIYAQRGYEHHILKPNGMIAEDVFWNKVNGLNLGLQLEEIQETLKNSGSECGSCFWAEVEELKGKPYEEVEVRVKTLEGMLREWITAGEVDEKEIFLEGSTFRKWWITLPKNHKSHSPLRDYMMDEITDT
Turning to B5, the binding entry with PAD4-YFP (Arabidopsis) [2] and in the assay with PAD4-YFP (Arabidopsis) [3] was “binds” in each case.

B6: FLAG-tagged EDS1^R493K (protein, UniProt Q9XF23 1-623)
chain: MAFEALTGINGDLITRSWSASKQAYLTERYHKEEAGAVVIFAFQPSFSEKDFFDPDNKSSFGEIKLNRVQFPCMRKIGKGDVATVNEAFLKNLEAVIDPRTSFQASVEMAVRSRKQIVFTGHSSGGATAILATVWYLEKYFIRNPNVYLEPRCVTFGAPLVGDSIFSHALGREKWSRFFVNFVTRFDIVPRITLARKASVEETLPHVLAQLDPRNSSVQESEQRITEFYTSVMRDTSTVANQAVCELTGSAEAILETLSSFLELSPYRPAGTFVFSTEKRLVAVNNSDAILQMLFYTCQASDEQEWSLIPFRSIRDHHSYEELVQSMGMKLFNHLDGENSIESSLNDLGVSTRGRQYVQAALEEEKKRVENQKKIIQVIQQERFLKKLAWIEDEYKPKCQAHKNGYYDSFKVSNEENDFKANVKRAELAGVFDEVLGLLKKCQLPDEFEGDIDWIKLATRYRRLVEPLDIANYHRHLKNEDTGPYMKRGRPTKYIYAQRGYEHHILKPNGMIAEDVFWNKVNGLNLGLQLEEIQETLKNSGSECGSCFWAEVEELKGKPYEEVEVRVKTLEGMLREWITAGEVDEKEIFLEGSTFRKWWITLPKNHKSHSPLRDYMMDEITDT
B6: in the assay with PAD4-YFP (Arabidopsis) [2], the binding result is on record as “binds”.
